According to article PMC10875708 (2024):
Results are given in words; binding and its absence hold for the method and conditions named. Binding seen in cells or lysates may run through a third protein. A yes stands for co-enrichment or nearness to the bait. Other partners may have been found.

The chains behind the UniProt entries cited, without tags or fusion partners.
UniProt Q9UQE7: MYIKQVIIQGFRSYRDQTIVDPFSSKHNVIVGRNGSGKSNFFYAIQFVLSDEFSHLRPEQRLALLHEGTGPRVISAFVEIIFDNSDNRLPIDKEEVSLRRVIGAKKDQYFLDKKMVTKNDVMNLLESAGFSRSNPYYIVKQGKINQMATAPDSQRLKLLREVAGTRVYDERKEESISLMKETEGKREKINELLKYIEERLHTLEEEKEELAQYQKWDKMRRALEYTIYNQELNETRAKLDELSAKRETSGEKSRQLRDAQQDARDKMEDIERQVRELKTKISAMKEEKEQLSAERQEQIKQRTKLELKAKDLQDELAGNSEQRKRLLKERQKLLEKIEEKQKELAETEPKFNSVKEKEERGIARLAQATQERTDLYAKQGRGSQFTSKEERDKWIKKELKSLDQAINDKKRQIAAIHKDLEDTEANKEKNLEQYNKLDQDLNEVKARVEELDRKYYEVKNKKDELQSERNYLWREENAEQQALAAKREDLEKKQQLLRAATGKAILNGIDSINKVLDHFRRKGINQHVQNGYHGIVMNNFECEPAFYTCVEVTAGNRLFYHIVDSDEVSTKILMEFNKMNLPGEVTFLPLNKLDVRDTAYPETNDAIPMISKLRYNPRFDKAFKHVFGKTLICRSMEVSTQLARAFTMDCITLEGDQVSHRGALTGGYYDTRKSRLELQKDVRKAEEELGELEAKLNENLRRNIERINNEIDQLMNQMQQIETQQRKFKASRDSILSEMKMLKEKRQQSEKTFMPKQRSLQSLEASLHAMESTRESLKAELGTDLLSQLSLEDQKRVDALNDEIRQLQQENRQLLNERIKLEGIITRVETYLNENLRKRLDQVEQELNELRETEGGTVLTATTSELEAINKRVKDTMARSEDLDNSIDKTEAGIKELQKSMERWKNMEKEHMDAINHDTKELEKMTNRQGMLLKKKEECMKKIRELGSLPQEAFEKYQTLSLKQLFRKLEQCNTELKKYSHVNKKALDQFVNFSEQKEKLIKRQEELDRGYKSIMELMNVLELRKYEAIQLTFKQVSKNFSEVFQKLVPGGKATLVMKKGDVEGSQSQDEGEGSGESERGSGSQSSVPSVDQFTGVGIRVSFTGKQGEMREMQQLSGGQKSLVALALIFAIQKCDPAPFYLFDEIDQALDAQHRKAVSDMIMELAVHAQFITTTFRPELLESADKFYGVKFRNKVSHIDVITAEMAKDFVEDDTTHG

B1: Structural maintenance of chromosomes 1A (SMC1A) (protein, UniProt Q14683 1-1233)
chain: MGFLKLIEIENFKSYKGRQIIGPFQRFTAIIGPNGSGKSNLMDAISFVLGEKTSNLRVKTLRDLIHGAPVGKPAANRAFVSMVYSEEGAEDRTFARVIVGGSSEYKINNKVVQLHEYSEELEKLGILIKARNFLVFQGAVESIAMKNPKERTALFEEISRSGELAQEYDKRKKEMVKAEEDTQFNYHRKKNIAAERKEAKQEKEEADRYQRLKDEVVRAQVQLQLFKLYHNEVEIEKLNKELASKNKEIEKDKKRMDKVEDELKEKKKELGKMMREQQQIEKEIKEKDSELNQKRPQYIKAKENTSHKIKKLEAAKKSLQNAQKHYKKRKGDMDELEKEMLSVEKARQEFEERMEEESQSQGRDLTLEENQVKKYHRLKEEASKRAATLAQELEKFNRDQKADQDRLDLEERKKVETEAKIKQKLREIEENQKRIEKLEEYITTSKQSLEEQKKLEGELTEEVEMAKRRIDEINKELNQVMEQLGDARIDRQESSRQQRKAEIMESIKRLYPGSVYGRLIDLCQPTQKKYQIAVTKVLGKNMDAIIVDSEKTGRDCIQYIKEQRGEPETFLPLDYLEVKPTDEKLRELKGAKLVIDVIRYEPPHIKKALQYACGNALVCDNVEDARRIAFGGHQRHKTVALDGTLFQKSGVISGGASDLKAKARRWDEKAVDKLKEKKERLTEELKEQMKAKRKEAELRQVQSQAHGLQMRLKYSQSDLEQTKTRHLALNLQEKSKLESELANFGPRINDIKRIIQSREREMKDLKEKMNQVEDEVFEEFCREIGVRNIREFEEEKVKRQNEIAKKRLEFENQKTRLGIQLDFEKNQLKEDQDKVHMWEQTVKKDENEIEKLKKEEQRHMKIIDETMAQLQDLKNQHLAKKSEVNDKNHEMEEIRKKLGGANKEMTHLQKEVTAIETKLEQKRSDRHNLLQACKMQDIKLPLSKGTMDDISQEEGSSQGEDSVSGSQRISSIYAREALIEIDYGDLCEDLKDAQAEEEIKQEMNTLQQKLNEQQSVLQRIAAPNMKAMEKLESVRDKFQETSDEFEAARKRAKKAKQAFEQIKKERFDRFNACFESVATNIDEIYKALSRNSSAQAFLGPENPEEPYLDGINYNCVAPGKRFRPMDNLSGGEKTVAALALLFAIHSYKPAPFFVLDEIDAALDNTNIGKVANYIKEQSTCNFQAIVISLKEEFYTKAESLIGVYPEQGDCVISKVLTFDLTKYPDANPNPNEQ

Molecular target: T1, Sulfotransferase family 2B member 1 (SULT2B1) (human (endogenous in HCT116)) (UniProt O00204)
T1 sequence: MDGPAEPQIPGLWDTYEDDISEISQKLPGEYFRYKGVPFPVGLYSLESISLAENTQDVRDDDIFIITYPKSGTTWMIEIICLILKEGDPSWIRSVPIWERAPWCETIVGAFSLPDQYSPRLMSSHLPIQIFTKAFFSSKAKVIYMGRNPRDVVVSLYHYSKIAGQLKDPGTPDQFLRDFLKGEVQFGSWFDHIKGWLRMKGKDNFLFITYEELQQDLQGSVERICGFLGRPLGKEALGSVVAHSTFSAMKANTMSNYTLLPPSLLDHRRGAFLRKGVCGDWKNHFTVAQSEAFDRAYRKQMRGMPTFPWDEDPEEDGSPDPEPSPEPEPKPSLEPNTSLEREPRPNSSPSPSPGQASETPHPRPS
Assay: affinity purification with mass spectrometry; IP of SULT2B1 from HCT116 whole-cell extract; bands stained with Coomassie, digested in gel, LC-MS/MS, searched against SwissProt Human

Molecule | binding
Structural maintenance of chromosomes 3 (SMC3) (from UniProt Q9UQE7 1-1217) | binds
B1 | binds
